Assay results: PubChem BioAssay AID252 (DTP/NCI, 2004)
The list shows only some results of the screen, not a fair sample: it is rich in T/C values a quarter to a half above the control, in often repeated tests (any T/C) and in doses without a T/C. Other doses and runs of a compound stand elsewhere. T/C gives the treated animals as a percentage of the vehicle group. Some doses have a count of surviving animals in place of a T/C: the source holds a T/C of zero for them, seemingly a mark for toxic or unscored doses. Some survivor counts are full or nearly so, which does not show that the dose was tolerated: survival well below the control is almost never listed, so the zero probably covers shortened survival too. Survivors were counted at the toxicity check, usually on the fifth day, unless a day is given; later deaths do not show. Schedules are NCI's codes, taken here to give the interval after Q, in days (D) or hours (H), and the number of doses after X. Some schedules carry Z or #; the key to these is not given. Some entries were tested several times; the results are listed from low to high. Where survival is the endpoint, this PubChem deposit counts one and a half times the control or more as active, and values a quarter to a half above the control carry no call in these data; other NCI protocols may use other cut-offs. Some T/C values carry the count of animals alive at the toxicity check (mostly the fifth day); without a count, all were alive then.

Test system: BDF1 mice, intracerebral L1210 leukemia, survival T/C
Assay: NCI In Vivo Anticancer Drug Screen. Data for tumor model L1210 Leukemia (intracerebral) in B6D2F1 (BDF1) mice
Details: higher T/C = longer survival
Summary of the method: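 Transplantable tumour-bearing mice, compound-treated vs vehicle controls; read-out survival, reported as T/C ratio.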

[1] = T/C endpoint: mean survival time, dose: 56.0 mg/kg/injection, schedule: Q01DX001 (ip), vehicle: other

O=C1C=CN(C2OC(CO)C(O)C2O)C(=O)C1 (stereo not drawn)
T/C (T/C endpoint: median survival time, dose: 25.0 mg/kg/injection, schedule: Q01DX009 (ip), vehicle: saline): 133 % of control | T/C (T/C endpoint: median survival time, dose: 50.0 mg/kg/injection, schedule: Q01DX009 (ip), vehicle: saline): 131 % of control [7 of 8 alive] | T/C (T/C endpoint: median survival time, dose: 100.0 mg/kg/injection, schedule: Q01DX009 (ip), vehicle: saline): 143 % of control | T/C (T/C endpoint: median survival time, dose: 400.0 mg/kg/injection, schedule: Q01DX009 (ip), vehicle: saline): 146 % of control

O=NN(CCCl)C(=O)NC1CCS(=O)(=O)C1 (stereo not drawn) (tested in a mixture with another compound)
T/C (T/C endpoint: mean survival time, dose: 7.0 mg/kg/injection, schedule: Q01DX001 (ip), vehicle: other): 131 % of control | T/C (T/C endpoint: mean survival time, dose: 11.0 mg/kg/injection, schedule: Q01DX001 (ip), vehicle: other): 143 % of control | T/C (T/C endpoint: mean survival time, dose: 24.0 mg/kg/injection, schedule: Q01DX001 (ip), vehicle: other): 133 % of control | T/C (T/C endpoint: mean survival time, dose: 32.0 mg/kg/injection, schedule: Q01DX001 (oral), vehicle: other): 148 % of control | T/C (T/C endpoint: mean survival time, dose: 72.0 mg/kg/injection, schedule: Q01DX001 (oral), vehicle: other): 125 % of control

Nc1nc(=O)n(C2OC(CO)C(O)C2O)cc1F (stereo not drawn)
T/C (T/C endpoint: median survival time, dose: 4.0 mg/kg/injection, schedule: Q01DX009 (ip), vehicle: water): 132 % of control [7 of 8 alive] | T/C (T/C endpoint: median survival time, dose: 128.0 mg/kg/injection, schedule: Q01DX009 (ip), vehicle: saline): 135 % of control [7 of 8 alive] | T/C (T/C endpoint: median survival time, dose: 256.0 mg/kg/injection, schedule: Q01DX009 (ip), vehicle: saline): 129 % of control

O=NN(CCF)C(=O)NC1CC2CCC1C2 (stereo not drawn)
survivor count (T/C endpoint: mean survival time, dose: 37.0 mg/kg/injection, schedule: Q01DX001 (ip), vehicle: other): 6 of 10 | T/C [1]: 287, 306 [9 of 10 alive], 320 % of control | survivor count [1]: 0 of 10 | survivor count (T/C endpoint: mean survival time, dose: 84.0 mg/kg/injection, schedule: Q01DX001 (ip), vehicle: other): 0 of 10 and 6 of 10 | survivor count (T/C endpoint: mean survival time, dose: 126.0 mg/kg/injection, schedule: Q01DX001 (ip), vehicle: other): 0 of 10 and 5 of 10

CC(=O)NC1=C(N2CC2)C(=O)C(NC(C)=O)=C(N2CC2)C1=O
T/C (T/C endpoint: mean survival time, dose: 0.5 mg/kg/injection, schedule: Q01DX009 (ip), vehicle: saline): 129 and 143 % of control | T/C (T/C endpoint: mean survival time, dose: 1.0 mg/kg/injection, schedule: Q01DX009 (ip), vehicle: saline with Tween-80): 127 % of control | T/C (T/C endpoint: mean survival time, dose: 1.0 mg/kg/injection, schedule: Q01DX009 (ip), vehicle: saline): 132 and 146 % of control | T/C (T/C endpoint: mean survival time, dose: 1.0 mg/kg/injection, schedule: Q01DX Z (ip), vehicle: carboxymethylcellulose (CMC)): 132 % of control | T/C (T/C endpoint: mean survival time, dose: 2.0 mg/kg/injection, schedule: Q01DX009 (ip), vehicle: saline with Tween-80): 137 % of control | survivor count (T/C endpoint: mean survival time, dose: 4.0 mg/kg/injection, schedule: Q01DX005 (ip), vehicle: saline with Tween-80): 10 of 10 | survivor count (T/C endpoint: mean survival time, dose: 4.0 mg/kg/injection, schedule: Q01DX009 (ip), vehicle: saline): 5 of 6 | survivor count (T/C endpoint: mean survival time, dose: 4.0 mg/kg/injection, schedule: Q01DX Z (ip), vehicle: carboxymethylcellulose (CMC)): 10 of 10

O=NN(CCF)C(=O)NC1CCCCC1
T/C (T/C endpoint: mean survival time, dose: 13.0 mg/kg/injection, schedule: Q01DX001 (ip), vehicle: carboxymethylcellulose (CMC)): 132 % of control | T/C (T/C endpoint: mean survival time, dose: 20.0 mg/kg/injection, schedule: Q01DX001 (ip), vehicle: carboxymethylcellulose (CMC)): 145 % of control | survivor count (T/C endpoint: mean survival time, dose: 54.0 mg/kg/injection, schedule: Q01DX001 (oral), vehicle: other): 5 of 10

O=P(NC12CC3CC(CC(C3)C1)C2)(N1CC1)N1CC1
T/C (T/C endpoint: mean survival time, dose: 13.3 mg/kg/injection, schedule: Q04DX003 (ip), vehicle: Klucel (hydroxypropylcellulose) (HPC)): 131 % of control | T/C (T/C endpoint: mean survival time, dose: 20.0 mg/kg/injection, schedule: Q04DX003 (ip), vehicle: Klucel (hydroxypropylcellulose) (HPC)): 131 % of control | T/C (T/C endpoint: mean survival time, dose: 27.0 mg/kg/injection, schedule: Q01DX001 (ip), vehicle: Klucel (hydroxypropylcellulose) (HPC)): 129 % of control | survivor count (T/C endpoint: mean survival time, dose: 40.0 mg/kg/injection, schedule: Q01DX001 (ip), vehicle: Klucel (hydroxypropylcellulose) (HPC)): 10 of 10

C[C@@H]1CN1C1=CC(=O)C(N2C[C@H]2C)=CC1=O
survivor count (T/C endpoint: mean survival time, dose: 16.0 mg/kg/injection, schedule: Q01DX009 (ip), vehicle: Klucel (hydroxypropylcellulose) (HPC)): 5 of 6 | survivor count (T/C endpoint: mean survival time, dose: 32.0 mg/kg/injection, schedule: Q01DX009 (ip), vehicle: Klucel (hydroxypropylcellulose) (HPC)): 2 of 6 | survivor count (T/C endpoint: mean survival time, dose: 64.0 mg/kg/injection, schedule: Q01DX009 (ip), vehicle: Klucel (hydroxypropylcellulose) (HPC)): 0 of 6

O=NN(CCCl)C(=O)NC12CC3CC(CC(C3)C1)C2
T/C (T/C endpoint: mean survival time, dose: 60.0 mg/kg/injection, schedule: Q01DX001 (ip), vehicle: carboxymethylcellulose (CMC)): 130 % of control

CS(C)=O
T/C (T/C endpoint: median survival time, dose: 1.0 mg/kg/injection, schedule: Q#C X009 (oral), vehicle: water): 128 % of control

CCCCCCCCCCCCCCCC(=O)OCC1OC(n2ccc(N)nc2=O)C(O)C1O (stereo not drawn)
T/C (T/C endpoint: mean survival time, dose: 10.0 mg/kg/injection, schedule: Q01DX005 (ip), vehicle: other): 125, 128, 131 % of control [9 of 10 alive] | T/C (T/C endpoint: mean survival time, dose: 15.0 mg/kg/injection, schedule: Q01DX005 (ip), vehicle: other): 134, 144, 145 % of control | T/C (T/C endpoint: mean survival time, dose: 50.0 mg/kg/injection, schedule: Q01DX001 (ip), vehicle: other): 136 % of control | T/C (T/C endpoint: mean survival time, dose: 100.0 mg/kg/injection, schedule: Q01DX001 (ip), vehicle: other): 142 and 143 % of control | survivor count (T/C endpoint: median survival time, dose: 100.0 mg/kg/injection, schedule: Q01DX009 (ip), vehicle: saline with Tween-80): 9 of 10 | survivor count (T/C endpoint: median survival time, dose: 200.0 mg/kg/injection, schedule: Q01DX009 (ip), vehicle: saline with Tween-80): 8 of 10 | survivor count (T/C endpoint: median survival time, dose: 400.0 mg/kg/injection, schedule: Q01DX009 (ip), vehicle: saline with Tween-80): 4 of 10

CCCCCCCCCCCCCCCC(=O)Nc1ccn(C2OC(CO)C(O)C2O)c(=O)n1 (stereo not drawn)
survivor count (T/C endpoint: median survival time, dose: 50.0 mg/kg/injection, schedule: Q01DX009 (ip), vehicle: distilled water + Tween-80 + alcohol): 10 of 10 | survivor count (T/C endpoint: median survival time, dose: 100.0 mg/kg/injection, schedule: Q01DX009 (ip), vehicle: distilled water + Tween-80 + alcohol): 9 of 10 | survivor count (T/C endpoint: median survival time, dose: 200.0 mg/kg/injection, schedule: Q01DX009 (ip), vehicle: distilled water + Tween-80 + alcohol): 4 of 10

CS(=O)(=O)Nc1ccc(Nc2c3ccccc3nc3ccccc23)cc1
survivor count (T/C endpoint: mean survival time, dose: 80.0 mg/kg/injection, schedule: Q01DX009 (ip), vehicle: saline): 10 of 10
